# Laboratory results: the supplement of paper PMC10032668
# Amino acid sequences for entries named in this document (tags omitted).
# BUB1B, O60566, UniProt O60566, whole entry: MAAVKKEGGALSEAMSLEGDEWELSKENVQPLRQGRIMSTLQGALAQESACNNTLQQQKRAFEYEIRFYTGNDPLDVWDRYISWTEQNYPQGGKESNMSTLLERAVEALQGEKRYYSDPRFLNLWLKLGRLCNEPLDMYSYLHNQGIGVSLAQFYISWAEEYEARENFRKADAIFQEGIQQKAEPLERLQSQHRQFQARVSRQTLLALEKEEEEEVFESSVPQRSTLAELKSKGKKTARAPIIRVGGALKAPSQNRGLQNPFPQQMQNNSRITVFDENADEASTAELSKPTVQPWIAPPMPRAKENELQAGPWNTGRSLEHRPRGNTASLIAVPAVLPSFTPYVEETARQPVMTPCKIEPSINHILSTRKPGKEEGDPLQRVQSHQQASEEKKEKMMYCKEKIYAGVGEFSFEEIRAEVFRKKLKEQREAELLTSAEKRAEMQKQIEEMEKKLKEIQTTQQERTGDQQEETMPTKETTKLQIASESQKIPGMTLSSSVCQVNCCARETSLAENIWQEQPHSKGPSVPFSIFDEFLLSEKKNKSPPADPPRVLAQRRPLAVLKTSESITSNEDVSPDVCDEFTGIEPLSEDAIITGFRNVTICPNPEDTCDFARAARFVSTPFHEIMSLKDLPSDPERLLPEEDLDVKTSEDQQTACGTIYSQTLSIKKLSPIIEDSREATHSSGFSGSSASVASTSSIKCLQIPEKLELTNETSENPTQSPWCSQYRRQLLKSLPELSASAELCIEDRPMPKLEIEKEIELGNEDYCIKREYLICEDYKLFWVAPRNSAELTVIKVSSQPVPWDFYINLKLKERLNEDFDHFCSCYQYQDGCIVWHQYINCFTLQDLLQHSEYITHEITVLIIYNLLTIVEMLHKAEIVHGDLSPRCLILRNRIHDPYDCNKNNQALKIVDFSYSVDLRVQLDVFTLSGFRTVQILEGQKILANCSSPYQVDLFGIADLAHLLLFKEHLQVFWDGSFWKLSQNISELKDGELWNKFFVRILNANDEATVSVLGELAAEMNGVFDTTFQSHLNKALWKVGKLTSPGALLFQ
# MCM2, P49736, UniProt P49736, whole entry: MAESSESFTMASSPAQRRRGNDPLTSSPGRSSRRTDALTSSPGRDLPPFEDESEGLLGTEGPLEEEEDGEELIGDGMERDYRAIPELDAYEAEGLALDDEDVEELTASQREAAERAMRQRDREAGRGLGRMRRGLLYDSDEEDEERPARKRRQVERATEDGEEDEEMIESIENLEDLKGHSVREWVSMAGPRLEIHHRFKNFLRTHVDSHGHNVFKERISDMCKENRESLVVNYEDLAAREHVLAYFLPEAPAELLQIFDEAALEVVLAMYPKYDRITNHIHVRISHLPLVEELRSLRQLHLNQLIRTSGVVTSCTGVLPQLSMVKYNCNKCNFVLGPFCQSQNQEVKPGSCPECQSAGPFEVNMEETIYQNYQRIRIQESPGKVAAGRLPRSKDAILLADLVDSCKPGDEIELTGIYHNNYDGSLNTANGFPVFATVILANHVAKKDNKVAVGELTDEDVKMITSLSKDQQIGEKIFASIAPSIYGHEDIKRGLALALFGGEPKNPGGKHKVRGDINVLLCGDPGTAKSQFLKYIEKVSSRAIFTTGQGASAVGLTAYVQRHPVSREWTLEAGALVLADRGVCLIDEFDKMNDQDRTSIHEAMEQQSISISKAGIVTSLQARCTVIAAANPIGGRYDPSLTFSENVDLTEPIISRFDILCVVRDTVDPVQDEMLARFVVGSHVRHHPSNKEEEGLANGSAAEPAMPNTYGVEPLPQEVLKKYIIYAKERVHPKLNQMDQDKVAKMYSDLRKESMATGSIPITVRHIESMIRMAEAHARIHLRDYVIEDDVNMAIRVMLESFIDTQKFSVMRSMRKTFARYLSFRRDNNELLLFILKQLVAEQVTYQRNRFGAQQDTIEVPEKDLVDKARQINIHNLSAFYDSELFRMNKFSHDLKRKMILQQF
# OTUB1, Q96FW1, UniProt Q96FW1, whole entry: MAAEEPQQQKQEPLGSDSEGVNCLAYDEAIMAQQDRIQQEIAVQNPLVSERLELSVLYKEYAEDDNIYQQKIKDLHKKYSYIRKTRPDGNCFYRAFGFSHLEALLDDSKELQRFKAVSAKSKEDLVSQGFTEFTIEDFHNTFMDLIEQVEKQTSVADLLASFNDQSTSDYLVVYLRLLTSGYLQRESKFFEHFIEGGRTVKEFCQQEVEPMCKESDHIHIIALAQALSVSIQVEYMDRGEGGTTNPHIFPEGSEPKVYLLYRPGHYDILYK
# RANBP2, P49792, UniProt P49792, whole entry: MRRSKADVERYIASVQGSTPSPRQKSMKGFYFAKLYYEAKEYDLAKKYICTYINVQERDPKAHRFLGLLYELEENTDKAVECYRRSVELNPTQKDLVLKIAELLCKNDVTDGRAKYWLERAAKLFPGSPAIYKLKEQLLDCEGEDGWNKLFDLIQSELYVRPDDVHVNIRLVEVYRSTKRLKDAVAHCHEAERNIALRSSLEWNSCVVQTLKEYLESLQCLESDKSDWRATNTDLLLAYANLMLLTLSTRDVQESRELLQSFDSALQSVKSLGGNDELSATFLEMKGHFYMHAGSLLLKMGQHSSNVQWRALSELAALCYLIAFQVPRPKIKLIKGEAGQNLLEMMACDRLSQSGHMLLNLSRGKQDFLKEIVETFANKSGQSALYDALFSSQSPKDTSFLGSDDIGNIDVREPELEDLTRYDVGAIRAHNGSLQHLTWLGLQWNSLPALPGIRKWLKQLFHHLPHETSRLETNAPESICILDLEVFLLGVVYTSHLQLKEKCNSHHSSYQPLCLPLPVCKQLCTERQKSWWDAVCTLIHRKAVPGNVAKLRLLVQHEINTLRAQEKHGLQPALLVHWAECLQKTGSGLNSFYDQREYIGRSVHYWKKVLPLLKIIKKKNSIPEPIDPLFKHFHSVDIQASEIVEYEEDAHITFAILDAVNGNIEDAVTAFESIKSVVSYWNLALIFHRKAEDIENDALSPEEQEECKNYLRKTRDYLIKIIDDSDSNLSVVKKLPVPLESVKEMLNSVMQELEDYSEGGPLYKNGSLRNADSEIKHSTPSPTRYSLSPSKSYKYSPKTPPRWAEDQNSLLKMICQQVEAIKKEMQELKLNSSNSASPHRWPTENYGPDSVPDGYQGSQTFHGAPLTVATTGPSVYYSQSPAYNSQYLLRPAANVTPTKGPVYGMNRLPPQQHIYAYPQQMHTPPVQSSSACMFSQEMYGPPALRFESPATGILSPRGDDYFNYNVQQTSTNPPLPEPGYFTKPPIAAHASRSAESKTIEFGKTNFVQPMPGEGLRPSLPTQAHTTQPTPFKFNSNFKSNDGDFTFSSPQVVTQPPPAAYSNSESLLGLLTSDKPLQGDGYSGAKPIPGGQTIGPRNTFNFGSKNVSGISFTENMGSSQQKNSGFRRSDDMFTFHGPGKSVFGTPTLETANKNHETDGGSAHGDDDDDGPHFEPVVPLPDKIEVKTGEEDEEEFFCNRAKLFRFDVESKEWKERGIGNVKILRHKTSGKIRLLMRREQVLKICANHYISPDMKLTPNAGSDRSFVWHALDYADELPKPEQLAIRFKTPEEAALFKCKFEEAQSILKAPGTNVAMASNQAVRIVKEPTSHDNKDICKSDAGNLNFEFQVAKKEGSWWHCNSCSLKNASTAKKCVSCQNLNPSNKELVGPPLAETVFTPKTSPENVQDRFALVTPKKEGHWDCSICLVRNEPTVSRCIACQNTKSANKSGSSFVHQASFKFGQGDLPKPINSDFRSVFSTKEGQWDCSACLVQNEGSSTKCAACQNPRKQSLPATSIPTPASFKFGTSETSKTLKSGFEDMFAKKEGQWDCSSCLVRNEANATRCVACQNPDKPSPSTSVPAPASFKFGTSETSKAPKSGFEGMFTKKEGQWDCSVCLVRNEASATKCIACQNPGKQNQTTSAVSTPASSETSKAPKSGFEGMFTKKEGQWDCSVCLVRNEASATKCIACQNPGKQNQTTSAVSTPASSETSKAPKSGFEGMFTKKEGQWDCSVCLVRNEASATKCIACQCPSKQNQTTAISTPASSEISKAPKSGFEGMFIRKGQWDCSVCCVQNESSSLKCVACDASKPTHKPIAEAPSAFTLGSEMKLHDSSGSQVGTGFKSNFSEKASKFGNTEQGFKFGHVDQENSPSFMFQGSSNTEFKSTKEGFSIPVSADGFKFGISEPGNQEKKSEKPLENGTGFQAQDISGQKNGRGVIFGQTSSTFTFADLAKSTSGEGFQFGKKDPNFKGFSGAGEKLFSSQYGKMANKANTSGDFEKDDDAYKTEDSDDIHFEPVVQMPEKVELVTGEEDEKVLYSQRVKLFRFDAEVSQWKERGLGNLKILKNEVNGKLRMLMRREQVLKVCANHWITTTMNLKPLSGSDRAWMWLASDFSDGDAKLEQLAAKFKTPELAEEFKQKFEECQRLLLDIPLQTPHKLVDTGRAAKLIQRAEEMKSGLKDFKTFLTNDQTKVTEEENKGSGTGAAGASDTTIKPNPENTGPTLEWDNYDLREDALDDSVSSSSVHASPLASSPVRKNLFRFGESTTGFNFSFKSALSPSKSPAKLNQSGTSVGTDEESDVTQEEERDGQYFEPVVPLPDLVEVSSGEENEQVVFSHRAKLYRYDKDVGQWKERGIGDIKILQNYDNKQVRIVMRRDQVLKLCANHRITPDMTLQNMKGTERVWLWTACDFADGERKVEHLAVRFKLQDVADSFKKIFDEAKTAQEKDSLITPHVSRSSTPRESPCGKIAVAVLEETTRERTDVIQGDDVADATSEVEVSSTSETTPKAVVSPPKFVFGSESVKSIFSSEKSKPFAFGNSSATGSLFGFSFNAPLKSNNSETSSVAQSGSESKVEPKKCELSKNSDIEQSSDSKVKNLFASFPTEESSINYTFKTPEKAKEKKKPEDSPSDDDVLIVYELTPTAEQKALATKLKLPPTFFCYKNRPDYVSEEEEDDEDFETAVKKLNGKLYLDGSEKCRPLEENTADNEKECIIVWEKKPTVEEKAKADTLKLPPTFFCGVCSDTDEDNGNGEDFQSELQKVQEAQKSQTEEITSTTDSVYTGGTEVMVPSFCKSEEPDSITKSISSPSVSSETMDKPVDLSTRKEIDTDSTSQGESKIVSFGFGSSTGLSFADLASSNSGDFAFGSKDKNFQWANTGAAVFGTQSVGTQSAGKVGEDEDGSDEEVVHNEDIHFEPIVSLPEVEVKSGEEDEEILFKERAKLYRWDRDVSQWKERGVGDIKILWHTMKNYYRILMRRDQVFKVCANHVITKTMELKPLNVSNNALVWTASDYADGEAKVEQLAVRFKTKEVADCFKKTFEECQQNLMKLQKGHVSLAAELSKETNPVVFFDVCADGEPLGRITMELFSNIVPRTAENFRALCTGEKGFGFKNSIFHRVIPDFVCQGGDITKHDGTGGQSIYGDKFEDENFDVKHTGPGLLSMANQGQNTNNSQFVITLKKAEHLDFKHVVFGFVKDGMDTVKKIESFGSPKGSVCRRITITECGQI
# SDC2, P34741, UniProt P34741, whole entry: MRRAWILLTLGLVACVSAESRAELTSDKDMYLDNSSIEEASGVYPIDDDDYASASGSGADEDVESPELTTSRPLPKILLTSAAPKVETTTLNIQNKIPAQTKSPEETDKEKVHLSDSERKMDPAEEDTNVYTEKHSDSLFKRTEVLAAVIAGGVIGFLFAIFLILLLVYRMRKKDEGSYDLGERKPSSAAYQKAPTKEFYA
# TARDBP, Q13148, UniProt Q13148, whole entry: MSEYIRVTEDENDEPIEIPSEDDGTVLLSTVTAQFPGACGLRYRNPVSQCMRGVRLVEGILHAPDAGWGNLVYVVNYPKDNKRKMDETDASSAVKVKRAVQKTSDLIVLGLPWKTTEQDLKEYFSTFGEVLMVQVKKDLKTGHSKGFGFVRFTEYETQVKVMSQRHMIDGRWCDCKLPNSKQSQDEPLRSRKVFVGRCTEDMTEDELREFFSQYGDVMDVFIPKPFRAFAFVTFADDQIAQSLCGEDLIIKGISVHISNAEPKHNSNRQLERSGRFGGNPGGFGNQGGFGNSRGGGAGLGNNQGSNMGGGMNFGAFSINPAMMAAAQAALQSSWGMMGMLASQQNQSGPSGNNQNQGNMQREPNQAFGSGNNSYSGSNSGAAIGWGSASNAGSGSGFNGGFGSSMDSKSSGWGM
# The other results are listed elsewhere or left out. Only hits are listed; about a third recur on repeated control peptides.
# Columns and labels:
# Experiment in all cases: PRISMA enrichment of interactor (LFQ) in peptide spot vs all other peptide spots (log2 fold change); higher = stronger / more specific binding of the interactor to the peptide
# BUB1B, O60566 = target: BUB1B, O60566
# Procedure: (§1)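 PRISMA: 15-aa overlapping tiles (offset 8 aa) of 60 microproteins, plus SOS1/GLUT1 control peptides, were spot-synthesized on cellulose membranes in triplicate. Membranes were incubated with benzonase-treated HEK293T lysate, and bound proteins were identified by LC-MS/MS with LFQ. Enrichment is the log2 fold change of each protein in one spot versus all other spots. Only interactors passing the significance cutoff are listed.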
# BZW1, Q7L1Q6 = target: BZW1, Q7L1Q6
# Procedure: as §1
# C7orf50, Q9BRJ6 = target: C7orf50, Q9BRJ6
# Procedure: as §1
# CAPZA1, P52907 = target: CAPZA1, P52907
# Procedure: as §1
# CHAF1B, Q13112 = target: CHAF1B, Q13112
# Procedure: as §1
# COL4A1, P02462 = target: COL4A1, P02462
# Procedure: as §1
# COQ5, Q5HYK3 = target: COQ5, Q5HYK3
# Procedure: as §1
# CTNNB1, P35222 = target: CTNNB1, P35222
# Procedure: as §1
# DUSP3, P51452 = target: DUSP3, P51452
# Procedure: as §1
# EARS2, Q5JPH6 = target: EARS2, Q5JPH6
# Procedure: as §1
# GPATCH8, Q9UKJ3 = target: GPATCH8, Q9UKJ3
# Procedure: as §1
# LARP7, Q4G0J3 = target: LARP7, Q4G0J3
# Procedure: as §1
# LENG1, Q96BZ8 = target: LENG1, Q96BZ8
# Procedure: as §1
# MAZ, P56270 = target: MAZ, P56270
# Procedure: as §1
# MCM2, P49736 = target: MCM2, P49736
# Procedure: as §1
# MRPS15, P82914 = target: MRPS15, P82914
# Procedure: as §1
# MRPS31, Q92665 = target: MRPS31, Q92665
# Procedure: as §1
# NDUFB10, O96000 = target: NDUFB10, O96000
# Procedure: as §1
# NIFK, Q9BYG3 = target: NIFK, Q9BYG3
# Procedure: as §1
# NSUN2, Q08J23 = target: NSUN2, Q08J23
# Procedure: as §1
# NTMT1, Q9BV86 = target: NTMT1, Q9BV86
# Procedure: as §1
# OTUB1, Q96FW1 = target: OTUB1, Q96FW1
# Procedure: as §1
# PCM1, Q15154 = target: PCM1, Q15154
# Procedure: as §1
# POLR2E, P19388 = target: POLR2E, P19388
# Procedure: as §1
# POP4, O95707 = target: POP4, O95707
# Procedure: as §1
# PPP6R3, Q5H9R7 = target: PPP6R3, Q5H9R7
# Procedure: as §1
# PRRC2B, Q5JSZ5 = target: PRRC2B, Q5JSZ5
# Procedure: as §1
# PTPMT1, Q8WUK0 = target: PTPMT1, Q8WUK0
# Procedure: as §1
# RAB5A, P20339 = target: RAB5A, P20339
# Procedure: as §1
# RANBP2, P49792 = target: RANBP2, P49792
# Procedure: as §1
# RBM3, P98179 = target: RBM3, P98179
# Procedure: as §1
# RBM7, Q9Y580 = target: RBM7, Q9Y580
# Procedure: as §1
# RRP12, Q5JTH9 = target: RRP12, Q5JTH9
# Procedure: as §1
# SDC2, P34741 = target: SDC2, P34741
# Procedure: as §1
# SERPINH1, P50454 = target: SERPINH1, P50454
# Procedure: as §1
# SF3B4, Q15427 = target: SF3B4, Q15427
# Procedure: as §1
# SLU7, O95391 = target: SLU7, O95391
# Procedure: as §1
# SMARCC1, Q92922 = target: SMARCC1, Q92922
# Procedure: as §1
# SOAT1, P35610 = target: SOAT1, P35610
# Procedure: as §1
# SURF6, O75683 = target: SURF6, O75683
# Procedure: as §1
# TARDBP, Q13148 = target: TARDBP, Q13148
# Procedure: as §1
# THRAP3, Q9Y2W1 = target: THRAP3, Q9Y2W1
# Procedure: as §1
# TXNDC5, Q8NBS9 = target: TXNDC5, Q8NBS9
# Procedure: as §1
# VMP1, Q96GC9 = target: VMP1, Q96GC9
# Procedure: as §1
# WDR5, P61964 = target: WDR5, P61964
# Procedure: as §1
# YWHAG, P61981 = target: YWHAG, P61981
# Procedure: as §1
# ZC3H14, Q6PJT7 = target: ZC3H14, Q6PJT7
# Procedure: as §1
binder,measurement,setting,value
LGNNAGGTMHWNDTR [PVT1],PRISMA enrichment of interactor (log2),"BUB1B, O60566",5.58
same,PRISMA enrichment of interactor (log2),"BZW1, Q7L1Q6",5.88
same,PRISMA enrichment of interactor (log2),"C7orf50, Q9BRJ6",9.26
same,PRISMA enrichment of interactor (log2),"CAPZA1, P52907",4.56
same,PRISMA enrichment of interactor (log2),"CHAF1B, Q13112",4.46
same,PRISMA enrichment of interactor (log2),"COL4A1, P02462",4.89
same,PRISMA enrichment of interactor (log2),"COQ5, Q5HYK3",5.46
same,PRISMA enrichment of interactor (log2),"CTNNB1, P35222",4.74
same,PRISMA enrichment of interactor (log2),"DUSP3, P51452",5.07
same,PRISMA enrichment of interactor (log2),"EARS2, Q5JPH6",6.3
same,PRISMA enrichment of interactor (log2),"GPATCH8, Q9UKJ3",6.11
same,PRISMA enrichment of interactor (log2),"LARP7, Q4G0J3",4.61
same,PRISMA enrichment of interactor (log2),"LENG1, Q96BZ8",4.15
same,PRISMA enrichment of interactor (log2),"MAZ, P56270",5.23
same,PRISMA enrichment of interactor (log2),"MCM2, P49736",7.77
same,PRISMA enrichment of interactor (log2),"MRPS15, P82914",10.5
same,PRISMA enrichment of interactor (log2),"MRPS31, Q92665",7.33
same,PRISMA enrichment of interactor (log2),"NDUFB10, O96000",7.08
same,PRISMA enrichment of interactor (log2),"NIFK, Q9BYG3",4.65
same,PRISMA enrichment of interactor (log2),"NSUN2, Q08J23",5.63
same,PRISMA enrichment of interactor (log2),"NTMT1, Q9BV86",5.91
same,PRISMA enrichment of interactor (log2),"OTUB1, Q96FW1",12.4
same,PRISMA enrichment of interactor (log2),"PCM1, Q15154",7.33
same,PRISMA enrichment of interactor (log2),"POLR2E, P19388",5.18
same,PRISMA enrichment of interactor (log2),"POP4, O95707",9.53
same,PRISMA enrichment of interactor (log2),"PPP6R3, Q5H9R7",5.23
same,PRISMA enrichment of interactor (log2),"PRRC2B, Q5JSZ5",5.62
same,PRISMA enrichment of interactor (log2),"PTPMT1, Q8WUK0",5.3
same,PRISMA enrichment of interactor (log2),"RAB5A, P20339",6.8
same,PRISMA enrichment of interactor (log2),"RANBP2, P49792",5.9
same,PRISMA enrichment of interactor (log2),"RBM3, P98179",6.45
same,PRISMA enrichment of interactor (log2),"RBM7, Q9Y580",4.37
same,PRISMA enrichment of interactor (log2),"RRP12, Q5JTH9",4.84
same,PRISMA enrichment of interactor (log2),"SDC2, P34741",4.46
same,PRISMA enrichment of interactor (log2),"SERPINH1, P50454",4.89
same,PRISMA enrichment of interactor (log2),"SF3B4, Q15427",5.49
same,PRISMA enrichment of interactor (log2),"SLU7, O95391",7.14
same,PRISMA enrichment of interactor (log2),"SMARCC1, Q92922",6.13
same,PRISMA enrichment of interactor (log2),"SOAT1, P35610",5.76
same,PRISMA enrichment of interactor (log2),"SURF6, O75683",5.23
same,PRISMA enrichment of interactor (log2),"TARDBP, Q13148",5.7
same,PRISMA enrichment of interactor (log2),"THRAP3, Q9Y2W1",6.34
same,PRISMA enrichment of interactor (log2),"TXNDC5, Q8NBS9",6.81
same,PRISMA enrichment of interactor (log2),"VMP1, Q96GC9",4.33
same,PRISMA enrichment of interactor (log2),"WDR5, P61964",7.34
same,PRISMA enrichment of interactor (log2),"YWHAG, P61981",5.41
same,PRISMA enrichment of interactor (log2),"ZC3H14, Q6PJT7",5.96

# A second format for part of the listing above.
binder	measurement	setting	value
LGNNAGGTMHWNDTR [PVT1]	PRISMA enrichment of interactor (log2)	COL4A1, P02462	4.89
same	PRISMA enrichment of interactor (log2)	MCM2, P49736	7.77
same	PRISMA enrichment of interactor (log2)	SOAT1, P35610	5.76
same	PRISMA enrichment of interactor (log2)	ZC3H14, Q6PJT7	5.96
